Where a name gives a salt, the structure may show the parent alone. The list shows a part of the results. Plates or batches differ in their baseline, so values are only roughly comparable.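 HCT116-GFP is a human colorectal cancer cell line that carries a KRAS mutation, is microsatellite-unstable and always makes green fluorescent protein; the immune cells came from healthy donors. Live-cell imaging of the green signal stood in for cancer cell survival, and activated immune cells alone cut survival to about half.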

In the assay the test system is HCT116-GFP. Nature of the assay: HCT116-GFP viability (GFP intensity) relative to untreated HCT116-GFP monoculture control, co-culture with activated PBMCs; higher = less cancer cell killing. To be noted: culture: co-culture with anti-CD3/IL2 activated PBMCs 1:1; 10 µM; 72 h.
For `C=CCOc1ccccc1OCC(O)CNC(C)C` (stereo not given) [Oxprenolol hydrochloride], the HCT116-GFP viability was determined as 56.9%.

As for `O=P(O)(O)C(O)(Cn1ccnc1)P(=O)(O)O` [Zoledronic acid hydrate], the HCT116-GFP viability came to 33.3%.

For the compound `Cc1cc(C(C)(C)C)cc(C)c1CC1=NCCN1` [Xylometazoline hydrochloride], the HCT116-GFP viability was found to be 47.5%.

The compound `CCN(CC)C(=O)C1(c2ccccc2)CC1CN` (stereo not given) [Milnacipran hydrochloride] yielded an HCT116-GFP viability of 50.4%.

On to `CCN(CCCCOC(=O)c1ccc(OC)c(OC)c1)C(C)Cc1ccc(OC)cc1` (stereo not given) [Mebeverine hydrochloride], for which the HCT116-GFP viability was determined as 69.4%.

As to `CCN(CC)CCOCCOC(=O)C1(c2ccccc2)CCCC1` [Carbetapentane citrate], the HCT116-GFP viability was 69.1%.

For `N[C@H]1CONC1=O` [(S)-(-)-Cycloserine], the HCT116-GFP viability was 28.3%.

As for `CCCCC1C(=O)N(c2ccccc2)N(c2ccc(O)cc2)C1=O` (stereo not given) [Oxyphenbutazone], the HCT116-GFP viability worked out at 14.7%.

`CCN(CC)C(=O)Nc1ccc(OCC(O)CNC(C)(C)C)c(C(C)=O)c1` (stereo not given) [Celiprolol hydrochloride] registered an HCT116-GFP viability of 27.1%.

`COc1cc2nc(N3CCN(C(=O)C4COc5ccccc5O4)CC3)nc(N)c2cc1OC` (stereo not given) [Doxazosin mesylate]: the HCT116-GFP viability turned out to be 57.7%.

The compound `CCOC1O[C@H]([C@@H](COCc2ccccc2)OCc2ccccc2)[C@H](OCc2ccccc2)[C@H]1O` (stereo not given in full) [Tribenoside] showed an HCT116-GFP viability of 33.5%.

`CNCC(O)c1ccc(O)c(O)c1` (stereo not given) [Racepinephrine hydrochloride] displayed an HCT116-GFP viability of 13.4%.

Compound `CCN(CC)CCNC(=O)c1ccc(N)cc1` [Procainamide hydrochloride] had an HCT116-GFP viability of 46.9%.

With `CC(=O)Nc1c(I)c(C(=O)N[C@H]2C(O)O[C@H](CO)[C@@H](O)[C@@H]2O)c(I)c(N(C)C(C)=O)c1I` (stereo not given in full) [Metrizamide], the HCT116-GFP viability came to 41.8%.

`C[C@@H]1CCC[C@H](C)N1NC(=O)c1ccc(Cl)c(S(N)(=O)=O)c1` [Clopamide] showed an HCT116-GFP viability of 41.3%.

With `CC[C@H]1OC(=O)[C@H](C)[C@@H](O[C@H]2C[C@@](C)(OC)[C@@H](O)[C@H](C)O2)[C@H](C)[C@@H](O[C@@H]2O[C@H](C)C[C@H](N(C)C)[C@H]2O)[C@](C)(O)C[C@@H](C)CN(C)[C@H](C)[C@@H](O)[C@]1(C)O` [Azithromycin], the HCT116-GFP viability was 59%.

The compound `CN[C@H]1CC[C@@H](c2ccc(Cl)c(Cl)c2)c2ccccc21` [Sertraline] returned an HCT116-GFP viability of 24.1%.

Compound `CC(CNC1CCCCC1)OC(=O)c1ccccc1` (stereo not given) [Hexylcaine hydrochloride] returned an HCT116-GFP viability of 85.9%.

Turning to `Nc1ccc(S(=O)(=O)Nc2nccs2)cc1` [Sulfathiazole], the HCT116-GFP viability stood at 44.3%.

Consider `Cc1ccc(-c2cc(C(F)(F)F)nn2-c2ccc(S(N)(=O)=O)cc2)cc1` [Celecoxib], for which the HCT116-GFP viability was 32.1%.

For the compound `C[C@]12CC[C@@H]3c4ccc(O)cc4C[C@@H](CCCCCCCCC[S+]([O-])CCCC(F)(F)C(F)(F)F)[C@H]3[C@@H]1CC[C@@H]2O` (stereo not given in full) [Fulvestrant], the HCT116-GFP viability came out at 24.6%.

Compound `CO/N=C(\C(=O)N[C@@H]1C(=O)N2C(C(=O)O)=C(COC(C)=O)CS[C@H]12)c1csc(N)n1` [Cefotaxime sodium salt] returned an HCT116-GFP viability of 46.6%.

As for `CCCCOc1cc(C(=O)OCCN(CC)CC)ccc1N` [Benoxinate hydrochloride], the HCT116-GFP viability came out at 42.6%.

In the case of `CC(C)Oc1ccc2c(=O)c(-c3ccccc3)coc2c1` [Ipriflavone], the HCT116-GFP viability was 33%.

In turn, `Cc1cc2cc3c(C)cc(=O)oc3c(C)c2o1` [Trioxsalen] returned an HCT116-GFP viability of 63.5%.

`CC(=O)Nc1nnc(S(N)(=O)=O)s1` [Acetazolamide] showed an HCT116-GFP viability of 34.4%.

With `Clc1ccc2nsnc2c1NC1=NCCN1` [Tizanidine hydrochloride], the HCT116-GFP viability came out at 51.5%.

With `C[C@@](Cc1ccc(O)c(O)c1)(NN)C(=O)O` [Carbidopa], the HCT116-GFP viability amounted to 53.1%.

Compound `CCOc1nc2cccc(C(=O)O)c2n1Cc1ccc(-c2ccccc2-c2nnn[nH]2)cc1` [Candesartan] returned an HCT116-GFP viability of 43%.

`Nc1ncnc2c1ncn2[C@@H]1O[C@H](CO)[C@@H](O)[C@@H]1O` [Vidarabine] registered an HCT116-GFP viability of 50.9%.

In turn, `CC(=O)OC[C@H]1O[C@@H]([S-])[C@H](OC(C)=O)[C@@H](OC(C)=O)[C@@H]1OC(C)=O.CCP(CC)CC.[Au+]` [Auranofin] gave an HCT116-GFP viability of 1.13%.

`CCC1(c2ccccc2)C(=O)NCNC1=O` [Primidone] yielded an HCT116-GFP viability of 61.7%.

The compound `O=C1CC[C@@H](C(=O)N2CSC[C@H]2C(=O)O)N1` [Pidotimod] showed an HCT116-GFP viability of 54.2%.

In the case of `Oc1c(Cl)cc(Cl)c2cccnc12` [Chloroxine], the HCT116-GFP viability was 6.25%.

As for `c1ccc(-c2ccc(C(c3ccccc3)n3ccnc3)cc2)cc1` (stereo not given) [Bifonazole], the HCT116-GFP viability amounted to 30.3%.

On to `CN(C)CCC(c1ccc(Br)cc1)c1ccccn1` (stereo not given) [Brompheniramine maleate], for which the HCT116-GFP viability was determined as 66.2%.

`CN1CCN(CC(=O)N2c3ccccc3C(=O)Nc3cccnc32)CC1` [Pirenzepine dihydrochloride]: the HCT116-GFP viability was determined as 51.9%.

Turning to `COC(=O)Nc1nc2cc(Sc3ccccc3)ccc2[nH]1` [Fenbendazole], the HCT116-GFP viability was 1.47%.

With `CN(CCCCCCCCCCN(C)C(=O)Oc1cccc([N+](C)(C)C)c1)C(=O)Oc1cccc([N+](C)(C)C)c1` [Demecarium bromide], the HCT116-GFP viability came to 45.7%.

For the compound `CC(=O)N(CC(O)CO)c1c(I)c(C(=O)NCC(O)CO)c(I)c(C(=O)NCC(O)CO)c1I` (stereo not given) [Iohexol], the HCT116-GFP viability was 31.5%.

`Cn1c(=O)c2c(ncn2CC2OCCO2)n(C)c1=O` [Doxofylline] registered an HCT116-GFP viability of 80.3%.

Turning to `Cc1cc(O)c(C(=O)N[C@@H](C(=O)N[C@@H]2C(=O)N3C(C(=O)O)=C(CSc4nnnn4C)CS[C@H]23)c2ccc(O)cc2)cn1` [Cefpiramide], the HCT116-GFP viability came out at 34.8%.

In the case of `CC(=O)O[C@]1(C(C)=O)CC[C@H]2[C@@H]3C=C(Cl)C4=CC(=O)CC[C@]4(C)[C@H]3CC[C@@]21C` [Chlormadinone acetate], the HCT116-GFP viability was determined as 55.6%.

Consider `CCCNC(=O)NS(=O)(=O)c1ccc(Cl)cc1` [Chlorpropamide], for which the HCT116-GFP viability stood at 46%.

`CCN(CC)C(C)CN1c2ccccc2Sc2ccccc21` (stereo not given) [Ethopropazine hydrochloride]: the HCT116-GFP viability was 78.3%.

`O=C1[C@H]2CCCC[C@H]2C(=O)N1CCCCN1CCN(c2nsc3ccccc23)CC1` [Perospirone] gave an HCT116-GFP viability of 52.3%.

Regarding `Clc1cccc(Cl)c1NC1=NCCN1` [Clonidine hydrochloride], the HCT116-GFP viability was 46%.

`CO[C@H]1/C=C/O[C@@]2(C)Oc3c(C)c(O)c4c(O)c(c5c(nc6cc(C)ccn65)c4c3C2=O)NC(=O)/C(C)=C\C=C\[C@H](C)[C@H](O)[C@@H](C)[C@@H](O)[C@@H](C)[C@H](OC(C)=O)[C@@H]1C` [Rifaximin] had an HCT116-GFP viability of 35.1%.

The compound `Nc1nc2c(ncn2COC(CO)CO)c(=O)[nH]1` [Ganciclovir] had an HCT116-GFP viability of 62.7%.

In turn, `CN(C)C(=N)NC(=N)N` [Metformin hydrochloride] came in with an HCT116-GFP viability of 34.1%.

As for `NCCCCCC(=O)O` [Aminocaproic acid], the HCT116-GFP viability was 71.8%.

`CNCCc1ccccn1` [Betahistine mesylate] had an HCT116-GFP viability of 36.1%.

Take `CC=CC(=O)N(CC)c1ccccc1C` [Crotamiton]: the HCT116-GFP viability is 73.9%.

Turning to `O=C(c1ccc(F)cc1)C1CCN(CCn2c(=O)[nH]c3ccccc3c2=O)CC1` [Ketanserin tartrate hydrate], the HCT116-GFP viability was 38.1%.

As for `CCN(CC)C(=O)c1ccc(O)c(OC)c1` [Ethamivan], the HCT116-GFP viability stood at 47.1%.

`Cc1[nH]cnc1CN1CCc2c(c3ccccc3n2C)C1=O` [Alosetron hydrochloride] had an HCT116-GFP viability of 5.36%.

`CCCOc1ccc2[nH]c(NC(=O)OC)nc2c1` [Oxibendazol] came in with an HCT116-GFP viability of 1.93%.

Regarding `CN(CCCN1c2ccccc2CCc2ccccc21)CC(=O)c1ccc(Cl)cc1` [Lofepramine], the HCT116-GFP viability amounted to 45.8%.

`CN(C)CCOC(c1ccccc1)c1ccccc1.Cn1c(=O)c2[nH]c(Cl)nc2n(C)c1=O` [Dimenhydrinate] displayed an HCT116-GFP viability of 37.8%.

As for `O=C1NCC2(CCN(CCc3ccccc3)CC2)O1` [Fenspiride hydrochloride], the HCT116-GFP viability stood at 54.9%.

Consider `Clc1ccc2c(c1)CCc1cccnc1C2=C1CCNCC1` [Desloratadine], for which the HCT116-GFP viability is 21.2%.

Regarding `COc1ccc(CC2c3cc(OC)c(OC)cc3CC[N+]2(C)CCC(=O)OCCCCCOC(=O)CC[N+]2(C)CCc3cc(OC)c(OC)cc3C2Cc2ccc(OC)c(OC)c2)cc1OC` (stereo not given) [Atracurium besylate], the HCT116-GFP viability stood at 38.2%.

With `CC(=O)[C@H]1CC[C@H]2[C@@H]3CC=C4C[C@@H](O)CC[C@]4(C)[C@H]3CC[C@]12C` [Pregnenolone], the HCT116-GFP viability came out at 33.4%.

The compound `CCN(CCO)CCCC(C)Nc1ccnc2cc(Cl)ccc12` (stereo not given) [Hydroxychloroquine sulfate] yielded an HCT116-GFP viability of 67.6%.

Regarding `CCCCN1CCCCC1C(=O)Nc1c(C)cccc1C` (stereo not given) [Bupivacaine hydrochloride], the HCT116-GFP viability worked out at 35.9%.

Compound `CCOC(=O)NNc1nncc2ccccc12` [Todralazine hydrochloride] showed an HCT116-GFP viability of 57.6%.

`CC(C)(C)c1ccc(C(O)CCCN2CCC(C(O)(c3ccccc3)c3ccccc3)CC2)cc1` (stereo not given) [Terfenadine] returned an HCT116-GFP viability of 0.925%.

Consider `CC(COc1ccccc1)NC(C)C(O)c1ccc(O)cc1` (stereo not given) [Isoxsuprine hydrochloride], for which the HCT116-GFP viability stood at 59.2%.

In turn, `Nc1ccc(S(=O)(=O)Nc2ccccn2)cc1` [Sulfapyridine] had an HCT116-GFP viability of 77.5%.

Regarding `COc1ccnc(C[S+]([O-])c2nc3cc(OC(F)F)ccc3[nH]2)c1OC` (stereo not given) [Pantoprazole sodium], the HCT116-GFP viability came to 52%.

As to `Nc1ccn([C@@H]2O[C@H](CO)[C@@H](O)[C@@H]2O)c(=O)n1` [Cytarabine], the HCT116-GFP viability stood at 6.54%.

For the compound `C[C@@H]1C[C@H]2[C@@H]3C[C@H](F)C4=CC(=O)C=C[C@]4(C)[C@@]3(F)[C@@H](O)C[C@]2(C)[C@@]1(O)C(=O)COC(=O)C(C)(C)C` [Flumethasone pivalate], the HCT116-GFP viability worked out at 44.3%.

`CCOc1ccccc1OC(c1ccccc1)C1CNCCO1` (stereo not given) [Reboxetine mesylate] yielded an HCT116-GFP viability of 59.6%.

In the case of `CN(C)CCCN1c2ccccc2Sc2ccc(Cl)cc21` [Chlorpromazine hydrochloride], the HCT116-GFP viability turned out to be 9.43%.

For `CN(C)c1ccc(O)c2c1C[C@H]1C[C@H]3[C@H](N(C)C)C(O)=C(C(N)=O)C(=O)[C@@]3(O)C(O)=C1C2=O` [Minocycline hydrochloride], the HCT116-GFP viability turned out to be 48.1%.

For the origin of these results see the supplement of paper PMC9938546.
